# Laboratory results from PubChem BioAssay AID1671190 (National Center for Advancing Translational Sciences (NCATS), 2021).
# Amino acid sequences for entries named in this document (tags omitted). A change or cut given only in a name is not applied to a line headed by its entry.
# UniProt P18054: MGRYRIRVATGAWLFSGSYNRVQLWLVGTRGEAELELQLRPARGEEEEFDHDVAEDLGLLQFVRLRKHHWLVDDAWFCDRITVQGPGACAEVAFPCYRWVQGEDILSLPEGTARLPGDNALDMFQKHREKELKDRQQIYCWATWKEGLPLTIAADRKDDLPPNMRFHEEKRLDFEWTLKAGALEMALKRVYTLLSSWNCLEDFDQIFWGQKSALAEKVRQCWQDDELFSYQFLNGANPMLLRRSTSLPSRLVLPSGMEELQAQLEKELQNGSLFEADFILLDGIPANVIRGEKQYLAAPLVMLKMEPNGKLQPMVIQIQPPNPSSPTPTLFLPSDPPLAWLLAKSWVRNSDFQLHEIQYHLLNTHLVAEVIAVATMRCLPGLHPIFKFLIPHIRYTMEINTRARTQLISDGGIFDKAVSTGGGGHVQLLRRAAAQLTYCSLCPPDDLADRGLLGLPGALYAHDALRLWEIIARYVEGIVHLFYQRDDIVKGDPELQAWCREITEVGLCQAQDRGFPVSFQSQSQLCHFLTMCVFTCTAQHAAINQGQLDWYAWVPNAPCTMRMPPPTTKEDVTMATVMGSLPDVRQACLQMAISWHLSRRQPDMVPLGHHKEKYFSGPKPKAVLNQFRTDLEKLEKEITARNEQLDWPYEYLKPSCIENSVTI
# In all, about 580,000 compounds went through this assay and about 6,100 (1.1%) were called active. Inconclusive means that the source gave no clear call. Such entries were picked first, then a sample of the others. Calls come from the whole dose curve; as a rule, active = well fitted inhibition curve with a large enough effect; inconclusive = small, poorly fitted or top-dose-only effect, or another doubt; inactive = no such curve, though single readings can be large or run the other way. Potencies beside an inconclusive call are fits to weak or partial responses and may not hold up.
# Molecular target: Polyunsaturated fatty acid lipoxygenase ALOX12 (Homo sapiens) (UniProt P18054)
# Test: Primary qHTS assay for inhibitors of human arachidonate 12S-lipoxygenase (ALOX12): Round 2
# Conditions: purified 12hLO, xylenol orange hydroperoxide absorbance; activity change, negative = inhibition: at 108 µM (top of the series) unless noted
# In short: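 Hydroperoxide product was detected by ferrous iron/xylenol orange as the 573 to 405 nm absorbance ratio. Arachidonic acid at 40 uM (final) was turned over for 30 min at room temperature by 150 nM human 12hLO, pH 7.0 Hepes buffer, after 15 min compound preincubation.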
# % is set by controls: 0 for no effect and ±100 for the full control effect; potency is the fitted concentration of half-maximal effect.
Compound,Potency,"activity change, negative = inhibition"
Cc1ccc(S(=O)(=O)Nc2ccc3cn[nH]c3c2)cc1,"inconclusive: 50.1 µM [inhibitor, single point]",
COc1ccc(CCNC(=O)C2CCN(S(=O)(=O)c3cccc4nsnc34)CC2)cc1OC,,inactive: 0%
Cc1cc(C)c(NC(=O)CSC2=Nc3ccccc3C3=NC(CC(=O)NCc4cccs4)C(=O)N23)c(C)c1 (stereo unspecified),,inactive: -26.5%
COc1cc(C(=O)NCc2nc3ccccc3n2C(C)C)cc(OC)c1OC,"inconclusive: 141 µM [inhibitor, single point]",
CCn1nnnc1SCC(=O)c1c(C)c(C)cc(C)c1C,"inconclusive: 31.6 µM [inhibitor, full curve, poor fit]",
COc1ccc(CNC(=O)c2ccccc2)cc1,"inconclusive: 14.1 µM [inhibitor, full curve, poor fit]",
CC(C)NC(=S)N/N=C/c1c[nH]c2ccccc12,"inconclusive: 50.1 µM [inhibitor, partial curve, poor fit]",
COc1ccc(-n2c(-c3ccc(Cl)cc3)n[nH]c2=S)c(OC)c1,"inconclusive: 44.7 µM [inhibitor, partial curve, poor fit]",
C[C@@H]1CN([C@@H](C)CO)C(=O)c2cc(NC(=O)CCC(F)(F)F)ccc2O[C@H]1CN(C)Cc1ccc(Cl)c(Cl)c1,"inconclusive: 50.1 µM [inhibitor, partial curve, poor fit]",
COc1cccc(C(=O)NC(C(=O)N2CCCCC2)C2CCN(C(=O)c3ccc(F)cc3)CC2)c1 (stereo unspecified),,inactive: 38.9%
O=C(NC1CCN(Cc2ccccc2)CC1)c1ccc(I)cc1,"inconclusive: 70.8 µM [inhibitor, partial curve, poor fit]",
COc1ccc(S(=O)(=O)Nc2cc(OC)c(NC(=O)c3ccco3)cc2OC)cc1,,inactive: -22.2%
Cc1cccn2c(=O)c(C(=O)NC(C)c3ccccc3)c(O)nc12 (stereo unspecified),"inconclusive: 44.7 µM [inhibitor, full curve, poor fit]",
COCCn1c(=S)[nH]c2cc(C(=O)NCCc3ccccc3)ccc2c1=O,,inactive: 1.67%
Cc1nn(-c2ccccc2)c2[nH]c(=O)c(CNc3ccc4c(c3)OCCO4)cc12,,inactive: 70.4%
Cc1ccc(NC(=O)C2=CCN(S(=O)(=O)c3ccc(F)cc3)CC2)c(C)c1,,inactive: 12.3%
CCc1ccc(N(Cc2cccs2)C(=O)c2cccc(C)c2)cc1,"inconclusive: 5.62 µM [inhibitor, partial curve, poor fit]",
COc1ccc(-c2cccc([C@H]3[C@@H]4C=CC[C@@H](C)[C@@H]4C(=O)N3Cc3ccccc3)c2)cc1,"inconclusive: 126 µM [inhibitor, single point]",
O=C(NCc1ccccc1)C1CCCN(C2CCN(C(=O)c3ccco3)CC2)C1 (stereo unspecified),"inconclusive: 22.4 µM [inhibitor, full curve]",
Nc1cccnc1Oc1ccc(F)cc1F,"inconclusive: 44.7 µM [inhibitor, partial curve, poor fit]",
CN(C)CCCNC(=S)N(Cc1cccs1)Cc1cc2cc3c(cc2[nH]c1=O)OCCO3,"inconclusive: 89.1 µM [inhibitor, single point]",
Cc1oc2cc(OCCN3CCN(C)CC3)ccc2c(=O)c1-c1ccc(Cl)cc1,"inconclusive: 0.398 µM [inhibitor, full curve, poor fit]",
CC(C)c1ccc(CNCC(O)c2ccccc2)cc1 (stereo unspecified),"inconclusive: 39.8 µM [inhibitor, partial curve, poor fit]",
Cc1ccc(S(=O)(=O)Nc2cc(NC(=O)CN3CCOCC3)ccc2Cl)cc1,,inactive: 0%

# A portion from further up:
Compound,Potency,"activity change, negative = inhibition"
Cc1nn(-c2ccccc2)c2[nH]c(=O)c(CNc3ccc4c(c3)OCCO4)cc12,,inactive: 70.4%
Cc1ccc(NC(=O)C2=CCN(S(=O)(=O)c3ccc(F)cc3)CC2)c(C)c1,,inactive: 12.3%

# Looked up by compound from the list above:
Compound,Potency,"activity change, negative = inhibition"
O=C(NC1CCN(Cc2ccccc2)CC1)c1ccc(I)cc1,"inconclusive: 70.8 µM [inhibitor, partial curve, poor fit]",
Cc1ccc(NC(=O)C2=CCN(S(=O)(=O)c3ccc(F)cc3)CC2)c(C)c1,,inactive: 12.3%

# (listing goes on)

Compound,Potency,"activity change, negative = inhibition"
CSc1ccccc1C(=O)NC(C)(C#N)C1CC1 (stereo unspecified),"inconclusive: 31.6 µM [inhibitor, partial curve, poor fit]",
O=C(Cn1ncc2ccccc2c1=O)Nc1ccc(F)c(F)c1F,,inactive: -27.2%
COc1ccc([C@H]2CC(=O)C=C(c3ccc(O)cc3)C2)cc1OC,,inactive: -8.86%
Cc1cc(Br)cn2cc(C(=O)O)nc12,"inconclusive: 31.6 µM [inhibitor, partial curve]",
CCCCNc1nc(N)nc(-c2cc(Cl)ccc2O)n1,"inconclusive: 50.1 µM [inhibitor, partial curve, poor fit]",
O=c1[nH]c2ccccc2s1,"inconclusive: 3.55 µM [inhibitor, full curve, poor fit]",
O=C1OC2(c3ccccc31)c1ccccc1-c1ccccc12,,inactive: 13.1%
CC(C)=CC(=O)NCCC[C@H](NC(=O)[C@@H]1[C@@H](NC(=O)Nc2ccc(F)cc2F)CCN1C(=O)C=C(C)C)C(N)=O,,inactive: 8.76%
COc1ccc(-n2c(CNC(=O)c3cccs3)n[nH]c2=S)cc1,"inconclusive: 39.8 µM [inhibitor, partial curve, poor fit]",
Fc1ccc(-c2csc(=Nc3cccc(C(F)(F)F)c3)n2Cc2ccc3c(c2)OCO3)cc1,"inconclusive: 3.16 µM [inhibitor, full curve, poor fit]",
O=S(=O)(NCCN1CCOCC1)c1ccc2ccccc2c1,"inconclusive: 44.7 µM [inhibitor, partial curve, poor fit]",
CNC(=O)c1ccc(-c2cc3onc(-c4ccccc4)c3c(=O)n2C)cc1,"inconclusive: 141 µM [inhibitor, partial curve, poor fit]",
CCOc1cc(/C=C/c2ccc3ccccc3n2)ccc1O,"inconclusive: 44.7 µM [inhibitor, partial curve, poor fit]",
CCn1c(-c2nn(C)c(C)c2Cl)n[nH]c1=S,,inactive: -16.2%
Cc1cnccc1CN(C)Cc1ccc2c(C)cc(=O)oc2c1,,inactive: -2.32%
O=C(/C=C/c1ccc[nH]1)c1ccc(I)cc1,"inconclusive: 31.6 µM [inhibitor, partial curve, poor fit]",
Fc1cccc(NC(=S)NCCc2ccccc2)c1,"inconclusive: 50.1 µM [inhibitor, partial curve, poor fit]",
N#Cc1c(-c2ccccc2)cc(-c2ccc3c(c2)OCO3)[nH]c1=O,"inconclusive: 25.1 µM [inhibitor, single point]",
CC(=O)Nc1ccc(NC(=O)c2ccc(C)cc2Cl)cc1,,inactive: -6.15%
O=C(Nc1ccc(F)cc1)c1nnc(CSCC(=O)N2CCN(c3ccccc3)CC2)s1,"inconclusive: 35.5 µM [inhibitor, single point]",
N#CC(=Nc1ccccc1)c1ccccc1,,inactive: -34.4%
COc1ccc(NC(=O)Nc2ccccc2OC)cc1,,inactive: 7.6%
CC1CCCCN1C/C=C/c1ccccc1[N+](=O)[O-] (stereo unspecified),,inactive: -3.24%
C[C@H]1CCC[C@]2(C)C[C@H]3OC(=O)C(CN4CCCCCC4)[C@H]3C=C12 (stereo partly specified),,inactive: 12.8%

Compound,Potency,"activity change, negative = inhibition"
O=C(O)Cn1cc(C(C(=O)O)N2CCN(c3ccccc3)CC2)c2ccccc21 (stereo unspecified),"inconclusive: 44.7 µM [inhibitor, single point]",
Cc1cc(NC(=O)CCn2nc(-c3cccs3)oc2=O)ccc1Br,"inconclusive: 79.4 µM [inhibitor, partial curve, poor fit]",
CCOc1cc(S(=O)(=O)NCCc2ccc(OC)c(OC)c2)c(OCC)cc1-n1cnnn1,,inactive: 13.8%
c1ccn2cc(-c3ccc4c(c3)OCO4)cc2c1,"inconclusive: 70.8 µM [inhibitor, partial curve, poor fit]",
Cc1cnc(C(=O)Oc2ccc(Cl)cc2)cn1,"inconclusive: 3.55 µM [inhibitor, full curve, poor fit]",
Cc1ccc(/C=C2\CCc3ccccc3C2=O)cc1,,inactive: -9.72%
CCCc1nc(N2CCCC2)c(C#N)c2c1CCCC2,"inconclusive: 35.5 µM [inhibitor, partial curve, poor fit]",
Cc1ccnc(Nc2nc3ccccc3o2)n1,,inactive: -4.84%
CCc1ccc(NC(=O)c2ccc(Cn3nc(N4CCN(c5ccccc5)CC4)ccc3=O)o2)cc1,"inconclusive: 25.1 µM [inhibitor, partial curve, poor fit]",
O=C(c1ccc2c(c1)N(Cc1c(F)cccc1Cl)C(=O)c1ccccc1S2)N1CCCC1,,inactive: 0%
Cc1[nH]c(=S)n(CC2CCCO2)c1C (stereo unspecified),"inconclusive: 89.1 µM [inhibitor, partial curve, poor fit]",
C[C@]12c3[nH]c4ccccc4c3CCN1C(=O)C(CC(=O)NCCCn1ccnc1)C[C@@H]2C(=O)N1CCCCC1 (stereo partly specified),,inactive: -11.9%
COCCn1cnnc1SCc1csc(-c2cc(Br)ccc2OC)n1,active: 15.8 µM,
O=C1C(NS(=O)(=O)c2cccs2)=C(N2CCOCC2)C(=O)c2ccccc21,"inconclusive: 70.8 µM [inhibitor, partial curve, poor fit]",
Cc1ccc(CNC(=O)C(c2ccccc2)c2ccccc2)cc1,,inactive: 3.96%
O=C(COC(=O)c1cc(-c2ccccc2)nc2ccccc12)NC1CC1,"inconclusive: 56.2 µM [inhibitor, partial curve, poor fit]",
Cc1cc(C)cc(CC(Cc2nc3ccccc3[nH]2)c2nc3ccccc3[nH]2)c1 (stereo unspecified),,inactive: 0.0287%
CC(=O)Cn1c(C(F)(F)F)nc2ccccc21,,inconclusive: -36.7% [inhibitor]
COc1cc(NC(=O)N2c3ccccc3Sc3ccccc32)c(C(=O)O)cc1OC,active: 20 µM,
NCCCCCc1cn([C@@H](CCC(=O)O)C(=O)NCCCCCCCCCCC(=O)N2CCNCC2)nn1,"inconclusive: 89.1 µM [inhibitor, single point]",
COc1ccc(C(=O)N2CC[C@H](c3nc4ccccc4n3C)C2)cc1OC,,inactive: 10.6% [at 176 µM]
CC(=O)N(CCC1(C(C)C)CCOC(C)(C)C1)C(C)c1cccs1 (stereo unspecified),"inconclusive: 112 µM [inhibitor, single point]",
COc1ccc(CNCc2ccc3c(c2)OCO3)c(OC)c1OC,"inconclusive: 3.16 µM [inhibitor, full curve, poor fit]",
